## Results of single-concentration screens

The chains behind the UniProt entries cited, without tags or fusion partners.
UniProt P9WFT3, whole entry: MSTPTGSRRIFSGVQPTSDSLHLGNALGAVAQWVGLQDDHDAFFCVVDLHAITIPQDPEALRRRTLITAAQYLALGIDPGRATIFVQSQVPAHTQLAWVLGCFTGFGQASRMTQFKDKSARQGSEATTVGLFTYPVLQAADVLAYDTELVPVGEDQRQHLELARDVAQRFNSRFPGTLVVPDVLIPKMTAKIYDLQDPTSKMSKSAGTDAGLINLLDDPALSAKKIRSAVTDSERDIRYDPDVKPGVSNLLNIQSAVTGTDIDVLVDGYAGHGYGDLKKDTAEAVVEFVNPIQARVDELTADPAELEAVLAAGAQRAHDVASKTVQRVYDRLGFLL

Source: ChEMBL document CHEMBL3988442, “University of Dundee, Small-Polar-MMV Screening Library” (2021).

Values are the deposited “Percent Effect”, in %.
The controls that fix the scale are not given in the record; negative values are as filed.
Compounds were drawn at random from those tested, without regard to their results.

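Enzyme assay of tryptophanyl-tRNA synthetase; the read-out is not stated. Target: Tryptophan-tRNA ligase, Mycobacterium tuberculosis (UniProt P9WFT3). Tested at 10 µM. Higher most likely means stronger inhibition; the record gives no direction and few retests gave an IC50. About 65,000 compounds were tested under these conditions; 0.098% (about 64) showed 50% or more at least once.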

Cc1ccc(SC2CCCC2)c(C(=O)NCc2n[nH]c(=O)[nH]2)c1 gave 1.471%. For COc1ccc(C(=O)Nc2ccc3ncn(C(C)C)c(=O)c3c2)cc1 the result was 0.4045%. Result for CC(C)n1ccnc1CN1CCOC(CC2CCCCC2)C1 (centres undefined) was 6.032%. C=C(C)COc1cccc(CNC(CC(C)C)c2ncnn2C)c1 (centres undefined) gave -0.6522%. For CCNC(=O)[C@@H]1C[C@@H](N)CN1C(=O)C1(c2ccc(OC)cc2)CCCC1 the result was 2.529%. Cc1cc(C(=O)NCC(C)N2CCc3ccccc32)no1 (centres undefined) read -1.394%.

Cc1nccn1CCCC(=O)N1CCCN(c2cccnn2)CC1 read -1.846%. Cc1cnn(C2(C(=O)O)CCN(Cc3oc4ccccc4c3C)CC2)c1 read -0.3137%. For Cc1nc(CN2CCC(CNC(=O)C3CCOC3)CC2)oc1C (centres undefined) the result was 24.71%. Result for CC(C)N1C(=O)C2(CCN(C)CC2)c2cc(F)ccc21 was -8.095%. With O=C(Nc1ccc(Cn2cccn2)cc1)N1CCC2(CC1)OCCO2 the screen gave 0.4938%. O=S(=O)(c1cccc(Cl)c1)N1C[C@@H]2CCN[C@@H]2C1 read 6.871%.

Result for CC(C)c1nn(C)c(Cl)c1CNCc1ccc2c(c1)OCCO2 was 4.581%. For c1cc(NC2CC3(CCN(Cc4cscn4)C3)C2)ncn1 (centres undefined) the result was -6.285%. Cc1ccc(C(=O)NC2CCN(CC(=O)N(C)c3ccccc3)CC2)o1 gave -1.827%. For O=C(c1ccc(-n2cnnc2)cc1Cl)N1CCCC(O)(CO)CC1 (centres undefined) the result was 16.25%. c1ncn(CC2CCCN(CC3CCCCC3)C2)n1 (centres undefined) read -2.167%. COc1ccc(COCC(O)CN(C)c2ccc(C)cc2C)cc1 (centres undefined) gave -1.87%.

c1csc(-c2cc(CN3CCN(c4nccs4)CC3)no2)c1 read -1.72%. O=C(O)CCc1cccc(C2CCCN2Cc2ccc(F)c(F)c2)n1 (centres undefined) read 1.589%. CN1CCN(Cc2cnc3n2CCN(C(=O)c2cscn2)C3)CC1 gave -4.033%. CCc1ccc2ncn(Cc3ncc[nH]3)c(=O)c2c1 gave 1.683%. Cc1c(C(=O)N2CCC2)nnn1-c1ccc2ncccc2c1 read -3.137%. With COc1ccc(C(=O)N(C)Cc2nnc3ccccn23)c(OC)c1OC the screen gave -2.884%.

Result for COCC(=O)NCCCn1nc2ccccn2c1=O was 0.136%. C[S+]([O-])c1nncn1CC(=O)c1ccc2c(c1)CCC2 (centres undefined) read 14.34%. With O=C([C@H]1C[C@H]2OCC[C@H]2N(CC2CCOCC2)C1)N1CCCCO1 the screen gave -3.44%. O=C(NCCc1nccs1)N1CCC(n2cccc2)CC1 read 1.534%. With CCn1cc(NC(=O)NCC(c2cccc(OC)c2)N(C)C)cn1 (centres undefined) the screen gave -3.829%. For COc1c(CNCc2cccnc2N2CCOCC2)c(C)nn1C the result was 0.1767%.

Cc1ncc(CC(=O)N2CCCC(COc3ccc(F)cc3)C2)c(=O)[nH]1 (centres undefined) read -1.844%. Cc1cc(CC(=O)N(C)Cc2cccc(OC(C)C)c2)n[nH]1 read 0.6353%. CC(C)NC(=O)c1nc(Cn2c(C(F)(F)F)nc3ccccc32)no1 read -2.271%. Result for Cc1cc(C2CCN(S(=O)(=O)c3cn(C)cn3)CC2)ccn1 was 4.696%. Cc1nn(C)c(Cl)c1C1CCCN1c1ncnc2c1CCC2 (centres undefined) read 2.987%. CSc1nc2ncc3c(=O)n(C)ccc3n2n1 read 6.768%.

Cc1nc(C)n(CC2CN(Cc3cccs3)Cc3nccn3C2)n1 (centres undefined) gave -3.314%. O=C(NCCCN1CCCCC1)c1ccc(-n2ccc3ccccc32)s1 read -2.315%. With O=c1n(CCSCc2ccccc2Br)nc2ccccn12 the screen gave 5.452%. Result for O=C(NC[C@]12COC[C@H]1CN(C1CCOCC1)C2)c1ccco1 was 1.057%. For Cc1nc(CN2C(=O)C[C@H]3[C@H]2CCN3C2CCOCC2)cs1 the result was 1.891%. With O=C(NCc1cnc2n1CCN(CC1CC1)CC2)C1CCC1 the screen gave 2.85%.

CCS(=O)(=O)N(C)CC(=O)Nc1ccc(Br)cn1 gave -0.9291%. CN(C)[C@H]1CCN(c2nc(C(C)(C)C)nc3c2cnn3C)C1 gave 2.051%. Cn1cc(C(=O)NC2CCN(Cc3ccn(C)c(=O)c3)CC2)cn1 read -0.2227%. Result for CNc1cccc(CC2COCCN(C(=O)c3cncs3)C2)n1 (centres undefined) was -4.036%. With CN(Cc1nnc(C2CC2)n1C)C1CCN(Cc2ccc(F)cc2)C1 (centres undefined) the screen gave 0.8607%. Result for CCC(NC(=O)C1CC1)c1ccccc1OCC(=O)N1CCCC1 (centres undefined) was 1.203%.

Result for Cc1ccc(S(=O)(=O)NCc2cnn(C)c2)c(F)c1 was 1.967%. Result for NC(=O)Cn1cc(NC(=O)N2CCC(c3ccccc3)CC2)cn1 was -4.16%. Result for Cc1nc(CC2CCCN(Cc3nc(N)c4ccccc4n3)C2)no1 (centres undefined) was 3.841%. For Cc1cccc(NC(=O)N(CCC(F)(F)F)C[C@H](O)CO)c1 the result was 1.09%.

Once more, the final 3:

| structure | Percent Effect |
|---|---|
| `NC(=O)Cn1cc(NC(=O)N2CCC(c3ccccc3)CC2)cn1` | -4.16 |
| `Cc1nc(CC2CCCN(Cc3nc(N)c4ccccc4n3)C2)no1` (centres undefined) | 3.841 |
| `Cc1cccc(NC(=O)N(CCC(F)(F)F)C[C@H](O)CO)c1` | 1.09 |